From US20210299283A1 (SANFORD BURNHAM PREBYS MEDICAL DISCOVERY INSTITUTE, published 2021)
No constants are given. Whether binding was seen depends on the method and setting. Some binding calls cover weakened binding; strength is not graded here.

Tests used:
[1] = molecular target: T1, Human CTGF recombinant protein (Affymetrix Cat #14-8503-80) (human) (UniProt P29279); assay: ELISA competition on recombinant human CTGF, as retold in the discussion
T1 sequence (looked up): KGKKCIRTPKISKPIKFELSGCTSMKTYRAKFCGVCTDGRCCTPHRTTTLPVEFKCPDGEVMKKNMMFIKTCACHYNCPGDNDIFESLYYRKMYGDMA

[2] = molecular target: T1, Human CTGF recombinant protein (Affymetrix Cat #14-8503-80) (human); assay: ELISA, non-labeled DAG (0.5 mM) competing with labelled DAG on recombinant human CTGF
[3] = molecular target: T1, Human CTGF recombinant protein (Affymetrix Cat #14-8503-80) (human); assay: ELISA, non-labeled DAG (0.5 mM) competing with FAM-DAG on recombinant human CTGF (FIG. 10)

Measured: binding

CDAGRKQKC (no label; synthesized on rink amide resin; described as a cyclic peptide) [non-labeled DAG peptide (…)]
binds: all assays above
